Test results taken from publication doi:10.1101/2024.02.12.579820.
These are yes or no findings as the source states them, for the method shown. Binding seen in cells or lysates may run through a third protein. Some entries that bind do so weakly or less than the wild type.

Sequences of proteins named here, by UniProt entry; tags and fusion partners are left off.
UniProt Q6PDQ2: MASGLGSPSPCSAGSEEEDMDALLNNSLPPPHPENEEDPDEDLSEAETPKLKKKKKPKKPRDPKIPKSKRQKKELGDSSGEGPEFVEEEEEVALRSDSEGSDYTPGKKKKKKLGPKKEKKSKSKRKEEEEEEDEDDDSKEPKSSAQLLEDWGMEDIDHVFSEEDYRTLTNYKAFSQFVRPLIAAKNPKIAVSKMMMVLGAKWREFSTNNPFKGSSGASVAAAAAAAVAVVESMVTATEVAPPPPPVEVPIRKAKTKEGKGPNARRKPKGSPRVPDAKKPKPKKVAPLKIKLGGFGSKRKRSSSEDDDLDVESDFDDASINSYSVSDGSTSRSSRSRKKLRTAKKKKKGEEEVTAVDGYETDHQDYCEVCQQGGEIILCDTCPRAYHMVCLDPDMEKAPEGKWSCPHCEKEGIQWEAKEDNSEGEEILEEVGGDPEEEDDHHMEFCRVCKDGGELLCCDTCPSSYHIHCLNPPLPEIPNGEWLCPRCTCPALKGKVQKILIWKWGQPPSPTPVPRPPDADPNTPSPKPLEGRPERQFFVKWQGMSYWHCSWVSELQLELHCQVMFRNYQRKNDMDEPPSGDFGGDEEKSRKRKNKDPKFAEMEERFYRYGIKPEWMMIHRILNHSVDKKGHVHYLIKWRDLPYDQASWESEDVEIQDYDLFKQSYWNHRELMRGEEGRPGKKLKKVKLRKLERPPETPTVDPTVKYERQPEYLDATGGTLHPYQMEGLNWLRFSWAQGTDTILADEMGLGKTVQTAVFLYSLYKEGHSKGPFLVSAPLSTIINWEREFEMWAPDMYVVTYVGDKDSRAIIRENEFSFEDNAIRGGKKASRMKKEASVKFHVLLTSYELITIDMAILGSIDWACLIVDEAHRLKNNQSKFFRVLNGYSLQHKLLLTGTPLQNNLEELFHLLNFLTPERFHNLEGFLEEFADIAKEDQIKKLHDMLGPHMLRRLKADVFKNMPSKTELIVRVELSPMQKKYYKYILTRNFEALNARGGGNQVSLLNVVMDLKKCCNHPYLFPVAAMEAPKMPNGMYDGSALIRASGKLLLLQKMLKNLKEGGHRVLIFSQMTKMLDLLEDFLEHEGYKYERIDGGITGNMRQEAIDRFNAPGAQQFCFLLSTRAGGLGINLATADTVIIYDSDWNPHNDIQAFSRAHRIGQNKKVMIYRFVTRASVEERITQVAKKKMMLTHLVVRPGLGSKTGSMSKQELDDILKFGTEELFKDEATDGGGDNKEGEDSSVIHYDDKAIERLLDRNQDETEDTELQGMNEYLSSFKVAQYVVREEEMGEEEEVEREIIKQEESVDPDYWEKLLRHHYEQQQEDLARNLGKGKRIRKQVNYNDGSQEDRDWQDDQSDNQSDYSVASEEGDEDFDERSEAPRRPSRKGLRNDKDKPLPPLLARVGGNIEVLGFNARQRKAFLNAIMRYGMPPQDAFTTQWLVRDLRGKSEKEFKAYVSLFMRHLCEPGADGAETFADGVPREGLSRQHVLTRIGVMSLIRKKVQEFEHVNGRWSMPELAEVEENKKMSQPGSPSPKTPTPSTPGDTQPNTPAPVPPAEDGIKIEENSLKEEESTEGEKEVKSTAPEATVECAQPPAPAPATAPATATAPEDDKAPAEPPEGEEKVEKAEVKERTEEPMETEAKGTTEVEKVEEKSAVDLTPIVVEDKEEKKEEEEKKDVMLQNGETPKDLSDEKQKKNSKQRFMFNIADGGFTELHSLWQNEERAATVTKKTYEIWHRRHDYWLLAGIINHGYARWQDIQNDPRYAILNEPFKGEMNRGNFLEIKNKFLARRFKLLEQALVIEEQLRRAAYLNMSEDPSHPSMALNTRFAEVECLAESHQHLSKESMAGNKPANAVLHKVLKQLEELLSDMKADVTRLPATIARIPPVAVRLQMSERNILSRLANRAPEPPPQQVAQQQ

T1: Adnp (mouse (endogenous in P3 neocortex or hippocampus)) (UniProt Q9Z103)
T1 sequence: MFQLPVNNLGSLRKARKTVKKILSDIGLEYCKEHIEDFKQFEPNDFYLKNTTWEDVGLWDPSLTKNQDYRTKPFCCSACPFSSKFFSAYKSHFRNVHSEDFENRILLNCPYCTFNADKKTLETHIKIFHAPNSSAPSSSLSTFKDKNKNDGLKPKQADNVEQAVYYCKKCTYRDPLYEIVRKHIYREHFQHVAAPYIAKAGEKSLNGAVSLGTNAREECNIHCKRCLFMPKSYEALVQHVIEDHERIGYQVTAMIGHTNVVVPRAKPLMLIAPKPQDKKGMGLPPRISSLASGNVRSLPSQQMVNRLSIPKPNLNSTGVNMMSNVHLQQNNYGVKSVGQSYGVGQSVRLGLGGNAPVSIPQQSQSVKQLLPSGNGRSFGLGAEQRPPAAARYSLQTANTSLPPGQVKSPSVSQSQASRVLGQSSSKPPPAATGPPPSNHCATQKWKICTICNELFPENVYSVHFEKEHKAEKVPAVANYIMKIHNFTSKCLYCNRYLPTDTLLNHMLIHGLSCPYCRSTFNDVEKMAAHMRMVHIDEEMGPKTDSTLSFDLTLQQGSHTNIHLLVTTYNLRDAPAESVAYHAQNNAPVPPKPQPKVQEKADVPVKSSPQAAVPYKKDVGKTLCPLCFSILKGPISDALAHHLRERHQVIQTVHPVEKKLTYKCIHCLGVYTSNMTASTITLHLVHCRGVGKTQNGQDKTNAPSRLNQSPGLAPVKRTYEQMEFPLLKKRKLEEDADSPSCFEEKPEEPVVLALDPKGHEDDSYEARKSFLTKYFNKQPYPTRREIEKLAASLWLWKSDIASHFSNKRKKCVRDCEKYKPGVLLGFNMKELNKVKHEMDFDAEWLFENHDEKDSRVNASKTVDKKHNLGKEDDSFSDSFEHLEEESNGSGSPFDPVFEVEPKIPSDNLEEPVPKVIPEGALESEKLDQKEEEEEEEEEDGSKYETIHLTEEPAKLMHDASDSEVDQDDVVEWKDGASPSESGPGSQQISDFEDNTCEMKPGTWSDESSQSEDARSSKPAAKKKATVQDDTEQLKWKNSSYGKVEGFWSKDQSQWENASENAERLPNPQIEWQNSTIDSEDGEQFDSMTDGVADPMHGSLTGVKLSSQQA


Legend:
[1] = target: T1, Adnp (mouse (endogenous in P3 neocortex or hippocampus)); experiment: co-IP
[2] = target: Chd4 (mouse (endogenous in P3 neocortex or hippocampus)) (UniProt Q6PDQ2); experiment: co-IP

| Molecule | binding [1] | binding [2] |
| --- | --- | --- |
| Chd4 (from UniProt Q6PDQ2 1-1915) | binds |  |
| Adnp (protein, UniProt Q9Z103 1-1108) MFQLPVNNLGSLRKARKTVKKILSDIGLEYCKEHIEDFKQFEPNDFYLKNTTWEDVGLWDPSLTKNQDYRTKPFCCSACPFSSKFFSAYKSHFRNVHSEDFENRILLNCPYCTFNADKKTLETHIKIFHAPNSSAPSSSLSTFKDKNKNDGLKPKQADNVEQAVYYCKKCTYRDPLYEIVRKHIYREHFQHVAAPYIAKAGEKSLNGAVSLGTNAREECNIHCKRCLFMPKSYEALVQHVIEDHERIGYQVTAMIGHTNVVVPRAKPLMLIAPKPQDKKGMGLPPRISSLASGNVRSLPSQQMVNRLSIPKPNLNSTGVNMMSNVHLQQNNYGVKSVGQSYGVGQSVRLGLGGNAPVSIPQQSQSVKQLLPSGNGRSFGLGAEQRPPAAARYSLQTANTSLPPGQVKSPSVSQSQASRVLGQSSSKPPPAATGPPPSNHCATQKWKICTICNELFPENVYSVHFEKEHKAEKVPAVANYIMKIHNFTSKCLYCNRYLPTDTLLNHMLIHGLSCPYCRSTFNDVEKMAAHMRMVHIDEEMGPKTDSTLSFDLTLQQGSHTNIHLLVTTYNLRDAPAESVAYHAQNNAPVPPKPQPKVQEKADVPVKSSPQAAVPYKKDVGKTLCPLCFSILKGPISDALAHHLRERHQVIQTVHPVEKKLTYKCIHCLGVYTSNMTASTITLHLVHCRGVGKTQNGQDKTNAPSRLNQSPGLAPVKRTYEQMEFPLLKKRKLEEDADSPSCFEEKPEEPVVLALDPKGHEDDSYEARKSFLTKYFNKQPYPTRREIEKLAASLWLWKSDIASHFSNKRKKCVRDCEKYKPGVLLGFNMKELNKVKHEMDFDAEWLFENHDEKDSRVNASKTVDKKHNLGKEDDSFSDSFEHLEEESNGSGSPFDPVFEVEPKIPSDNLEEPVPKVIPEGALESEKLDQKEEEEEEEEEDGSKYETIHLTEEPAKLMHDASDSEVDQDDVVEWKDGASPSESGPGSQQISDFEDNTCEMKPGTWSDESSQSEDARSSKPAAKKKATVQDDTEQLKWKNSSYGKVEGFWSKDQSQWENASENAERLPNPQIEWQNSTIDSEDGEQFDSMTDGVADPMHGSLTGVKLSSQQA |  | binds |
